Measurements reported in patent US4486434A, “Histamine H1 -antagonists” (Smith Kline & French Laboratories Limited, priority 1981, dated 1984).
Some entries share one result that the patent states for a list of compounds.

Sequences of proteins named here, by UniProt entry; tags and fusion partners are left off.
UniProt P47747, whole entry: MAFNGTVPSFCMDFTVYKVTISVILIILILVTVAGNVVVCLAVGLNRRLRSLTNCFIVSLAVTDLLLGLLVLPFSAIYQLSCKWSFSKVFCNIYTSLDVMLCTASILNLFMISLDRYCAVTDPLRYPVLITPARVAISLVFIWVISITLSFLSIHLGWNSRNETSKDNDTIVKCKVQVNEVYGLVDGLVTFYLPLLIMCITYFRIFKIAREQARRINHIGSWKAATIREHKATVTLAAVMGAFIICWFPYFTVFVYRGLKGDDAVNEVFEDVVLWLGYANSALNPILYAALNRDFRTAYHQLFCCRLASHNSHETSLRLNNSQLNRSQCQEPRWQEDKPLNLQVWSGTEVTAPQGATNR
UniProt P31389, whole entry: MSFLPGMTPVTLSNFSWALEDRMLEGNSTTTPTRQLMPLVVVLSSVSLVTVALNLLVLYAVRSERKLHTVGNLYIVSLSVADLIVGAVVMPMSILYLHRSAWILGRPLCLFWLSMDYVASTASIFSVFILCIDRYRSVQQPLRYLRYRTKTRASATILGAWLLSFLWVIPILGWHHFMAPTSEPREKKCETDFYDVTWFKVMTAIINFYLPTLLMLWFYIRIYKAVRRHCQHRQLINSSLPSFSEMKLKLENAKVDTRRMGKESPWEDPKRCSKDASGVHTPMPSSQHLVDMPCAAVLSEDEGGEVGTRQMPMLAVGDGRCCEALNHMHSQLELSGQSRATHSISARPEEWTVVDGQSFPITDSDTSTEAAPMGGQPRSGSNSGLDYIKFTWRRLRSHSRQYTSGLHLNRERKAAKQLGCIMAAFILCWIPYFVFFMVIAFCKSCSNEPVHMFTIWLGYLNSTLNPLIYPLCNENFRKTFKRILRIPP

How the values were obtained:
histamine H2 -receptor = biological target: T1, histamine H2 -receptor (Cavia porcellus, UniProt P47747); assay: guinea pig atrium test (in vitro histamine H2-antagonist activity); format: biochemical; settings: isolated guinea pig right atrium, histamine-stimulated rate of beating, 60 min contact, 37° C.
T1 construct: spontaneously beating isolated portion of the guinea pig right atrium; from tissue; host or cells: isolated guinea pig right atrium

histamine H1 -receptor = biological target: T2, histamine H1 -receptor (Cavia porcellus, UniProt P31389); assay: guinea pig ileum test (in vitro histamine H1-antagonist activity); format: biochemical; settings: isolated guinea pig ileum, histamine-induced contraction, 8 min contact, 30° C.
T2 construct: an isolated portion of the guinea pig ileum is secured under tension; from tissue; host or cells: isolated guinea pig ileum

| SMILES | pA2 value (histamine H2-antagonist activity) (histamine H2 -receptor) | pA2 value (histamine H1-antagonist activity) (histamine H1 -receptor) |
| --- | --- | --- |
| Cc1cc(Br)cnc1CCCCNc1ncc(Cc2ccc(C)[n+]([O-])c2)c(=O)[nH]1 [Example 3, 2-[4-(5-bromo-3-methylpyrid-2-yl)-butylamino]-5-(N-oxo-6-methylpyrid-3-ylmethyl)-4-pyrimidone] | less than 7.5 | greater than 8 |
| Cc1cc(Br)cnc1CCCCNc1ncc(Cc2ccncc2)c(=O)[nH]1 [Example 2, 2-[4-(5-bromo-3-methylpyrid-2-yl)-butylamino]-5-(pyrid-4-ylmethyl)pyrimidone] | less than 7.5 | greater than 8 |
| Cc1cc(C)c(Cc2cnc(NCCCCc3ncc(Br)cc3C)[nH]c2=O)cn1 [Example 11, 2-[4-(5-bromo-3-methylpyrid-2-yl)-butylamino]-5-(4,6-dimethyl-3-pyridylmethyl)-4-pyrimidone] | less than 7.5 | greater than 8 |
| Cc1ccc(Cc2cnc(NCCCCc3ncc(Cl)cc3C)[nH]c2=O)cn1 [Example 5, 2-[4-(5-chloro-3-methylpyrid-2-yl)butylamino]-5-(6-methylpyrid-3-ylmethyl)-4-pyrimidone] | less than 7.5 | greater than 8 |
| Cc1cc(Cc2cnc(NCCCCc3ncc(Br)cc3C)[nH]c2=O)cnc1C [Example 12, 2-[4-(5-bromo-3-methyl-pyrid-2-yl)-butylamino]-5-(5,6-dimethyl-3-pyridylmethyl)-4-pyrimidone] | less than 7.5 | greater than 8 |
| Cc1cc(Br)cnc1CCCCNc1ncc(Cc2ccc(CO)nc2)c(=O)[nH]1 [Example 4, 2-[4-(5-bromo-3-methylpyrid-2-yl)-butylamino]-5-(6-hydroxymethylpyrid-3-yl-methyl)-4-pyrimidone] | less than 7.5 | greater than 8 |
| Cc1ccc(Cc2cnc(NCCCCc3ncc(Br)cc3C)[nH]c2=O)cn1 [Example 1, 2-[4-(5-bromo-3-methylpyrid-2-yl)-butylamino]-5-(6-methylpyrid-3-yl-methyl)-4-pyrimidone] | less than 7.5 | greater than 8 |
| Cc1ccc(Cc2cnc(NCCCCc3ncc([N+](=O)[O-])cc3C)[nH]c2=O)cn1 [Example 6, 2-[4-(5-nitro-3-methylpyrid-2-yl)butylamino]-5-(6-methylpyrid-3-ylmethyl)-4-pyrimidone] | less than 7.5 | greater than 8 |
| Cc1ccc(Cc2cnc(NCCCCc3ncc(I)cc3C)[nH]c2=O)cn1 [Example 7, 2-[4-(5-iodo-3-methylpyrid-2-yl)butylamino]-5-(6-methylpyrid-3-ylmethyl)-4-pyrimidone] | less than 7.5 | greater than 8 |
| Cc1cc(Br)cnc1CCCCNc1ncc(Cc2cc[n+]([O-])cc2)c(=O)[nH]1 [Example 10, 2-[4-(5-bromo-3-methylpyridyl-2-yl)-butylamino]-5-(N-oxo-pyrid-4-ylmethyl)-4-pyrimidone] | less than 7.5 | greater than 8 |
| Cc1cc(Br)cnc1CCCCNc1ncc(Cc2cc(C)c(C)[n+]([O-])c2)c(=O)[nH]1 [Example 9, 2-[4-(5-bromo-3-methylpyrid-2-yl)butylamino]-5-(5,6-dimethylpyrid-N-oxo-3-ylmethyl)-4-pyrimidone] | less than 7.5 | greater than 8 |
| Cc1ccc(Cc2cnc(NCCCCc3ncc(F)cc3C)[nH]c2=O)cn1 [Example 8, 2-[4-(5-fluoro-3-methylpyridyl-2-yl)butylamino]-5-(6-methylpyrid-3-ylmethyl)-4-pyrimidone] | less than 7.5 | greater than 8 |
